According to the supplement of paper PMC9454738:
Some of the results follow. This data set is noisy: repeats of one test often differ as much as different tests do.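 Triple-negative MDA-MB-231 breast cancer cells and their brain-metastatic MDA-MB-231BRM derivative each stably expressed empty vector, full-length GLI1 or truncated tGLI1. CellTiter-Blue measured viability at 48 h relative to 1% DMSO vehicle. Compounds reducing viability 20% more in tGLI1 cells than in vector and GLI1 cells counted as tGLI1-selective.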

Assays:
Assay in all cases: cell viability relative to vehicle (DMSO) control (fraction); higher = more viable cells (less growth inhibition)
Conditions in all cases: treatment time 48 h
MDA-MB-231 GLI1 = tested on: MDA-MB-231 GLI1
MDA-MB-231 Vector = tested on: MDA-MB-231 Vector
MDA-MB-231 tGLI1 = tested on: MDA-MB-231 tGLI1
MDA-MB-231BRM GLI1 = tested on: MDA-MB-231BRM GLI1
MDA-MB-231BRM Vector = tested on: MDA-MB-231BRM Vector
MDA-MB-231BRM tGLI1 = tested on: MDA-MB-231BRM tGLI1

| SMILES | cell viability (MDA-MB-231 GLI1; 0.05 µM) | cell viability (MDA-MB-231 GLI1; 0.5 µM) | cell viability (MDA-MB-231 GLI1; 5 µM) | cell viability (MDA-MB-231 Vector; 0.05 µM) | cell viability (MDA-MB-231 Vector; 0.5 µM) | cell viability (MDA-MB-231 Vector; 5 µM) | cell viability (MDA-MB-231 tGLI1; 0.05 µM) | cell viability (MDA-MB-231 tGLI1; 0.5 µM) | cell viability (MDA-MB-231 tGLI1; 5 µM) | cell viability (MDA-MB-231BRM GLI1; 0.05 µM) | cell viability (MDA-MB-231BRM GLI1; 0.5 µM) | cell viability (MDA-MB-231BRM GLI1; 5 µM) | cell viability (MDA-MB-231BRM Vector; 0.05 µM) | cell viability (MDA-MB-231BRM Vector; 0.5 µM) | cell viability (MDA-MB-231BRM Vector; 5 µM) | cell viability (MDA-MB-231BRM tGLI1; 0.05 µM) | cell viability (MDA-MB-231BRM tGLI1; 0.5 µM) | cell viability (MDA-MB-231BRM tGLI1; 5 µM) |
| --- | --- | --- | --- | --- | --- | --- | --- | --- | --- | --- | --- | --- | --- | --- | --- | --- | --- | --- |
| Cn1cc(/C=C2\C(=O)Nc3cccnc32)c2ccccc21 | 0.703 | 1.29 | 0.547 | 1.01 | 1.22 | 0.854 | 0.923 | 1.17 | 0.759 | 1.05 | 0.742 | 0.665 | 0.699 | 0.867 | 0.579 | 1.06 | 0.827 | 0.594 |
| CN(C)c1nc(N(C)C)nc(N(C)C)n1 [Altretamine (Hexalen)] | 1.07 | 1.12 | 1.01 | 0.93 | 1.27 | 1.1 | 1.17 | 1.05 | 1.07 | 1.03 | 1.02 | 0.985 | 1.06 | 1.02 | 1.02 | 1.07 | 1.01 | 1.01 |
| CN1CCN(CCOc2cc(OC3CCOCC3)c3c(Nc4c(Cl)ccc5c4OCO5)ncnc3c2)CC1 [Saracatinib (AZD0530)] | 1.09 | 1.31 | 0.617 | 1.02 | 0.912 | 0.447 | 0.803 | 1.09 | 0.475 | 0.866 | 0.863 | 0.887 | 0.798 | 0.826 | 0.869 | 0.926 | 0.853 | 0.756 |
| O=c1cc(CN2CCOCC2)occ1OCCCCCSc1ccnc2cc(C(F)(F)F)ccc12 | 2.26 | 2.92 | 2.34 | 1.43 | 1.43 | 1.49 | 1.46 | 1.5 | 1.6 | 0.826 | 0.799 | 0.656 | 0.872 | 0.669 | 0.708 | 1.18 | 0.705 | 1.07 |
| NC(=O)Nc1sc(-c2ccc(F)cc2)cc1C(N)=O | 1.2 | 1.25 | 0.779 | 1.16 | 1.19 | 0.938 | 1.17 | 0.623 | 0.777 | 1 | 1.06 | 0.914 | 0.929 | 1.04 | 1 | 1.02 | 1.06 | 0.934 |
| Nc1ccc(C(=O)Nc2cccc(-c3nc(N4CCOCC4)c4oc5ncccc5c4n3)c2)cn1 | 1.1 | 1.23 | 0.368 | 0.626 | 1.13 | 0.359 | 0.507 | 1.07 | 0.306 | 1.1 | 1.04 | 0.746 | 0.596 | 0.896 | 0.722 | 0.952 | 0.963 | 0.715 |
| CNc1nc(Nc2cnn([C@H]3CCN(C4COC4)C[C@@H]3F)c2Cl)ncc1C(F)(F)F | 1.21 | 1.92 | 1.29 | 0.684 | 0.703 | 0.532 | 0.712 | 0.804 | 0.669 | 0.508 | 0.486 | 0.354 | 0.59 | 0.446 | 0.402 | 0.727 | 0.675 | 0.648 |
| CN(C)S(=O)(=O)c1ccc2c(c1)/C(=C/c1cc3c([nH]1)CCCC3)C(=O)N2 | 2.15 | 3 | 1.41 | 1.17 | 1.38 | 0.815 | 1.4 | 1.51 | 0.953 | 0.785 | 0.716 | 0.558 | 0.914 | 0.75 | 0.633 | 1.07 | 1.06 | 0.925 |
| CN1CC2c3ccccc3Oc3ccc(Cl)cc3C2C1 (stereo not given) [Asenapine] | 1.05 | 1.11 | 1.01 | 1.43 | 1.18 | 1.08 | 1.19 | 1.14 | 0.914 | 1.1 | 1.04 | 0.951 | 1.02 | 1.04 | 0.958 | 1.06 | 1.01 | 1.04 |
| Cc1cc([C@@H](C)Nc2ccccc2C(=O)O)c2nc(N3CCOCC3)cc(=O)n2c1 | 1.24 | 1.07 | 1.28 | 1.94 | 1.18 | 1.15 | 1.22 | 1.17 | 1.05 | 1.18 | 1.12 | 0.919 | 1.14 | 1.05 | 0.873 | 0.492 | 0.736 | 0.936 |

Taken from above.
Entry of CN1CC2c3ccccc3Oc3ccc(Cl)cc3C2C1 (stereo not given) [Asenapine] under cell viability (MDA-MB-231BRM tGLI1; 0.5 µM): 1.01
Entry of Cn1cc(/C=C2\C(=O)Nc3cccnc32)c2ccccc21 under cell viability (MDA-MB-231 tGLI1; 0.05 µM): 0.923
